From PubChem BioAssay AID2662 (National Center for Advancing Translational Sciences (NCATS), 2010)
The whole screen tested about 290,000 compounds, of which about 110 (0.038%) were called active. Inconclusive results, whose numbers are uncertain, are shown with a selection of clear calls. Calls follow the shape of the dose curve; as a rule, active = well fitted inhibition curve with a large enough effect in the polarisation, with a control signal flat (not every such curve was filed as active); inconclusive = small, poorly fitted or top-dose-only effect, or effect the other way, or a change in a side signal; inactive = no such curve, though single readings can be large or run the other way; the % refers to the polarisation. A potency beside an inconclusive call is a rough fit, not a confirmed value. “Side channel” marks fits to a control or component signal instead of the main read-out.

By UniProt entry, the sequences of proteins in these tests, tags left out.
UniProt Q03164, whole entry, looked up: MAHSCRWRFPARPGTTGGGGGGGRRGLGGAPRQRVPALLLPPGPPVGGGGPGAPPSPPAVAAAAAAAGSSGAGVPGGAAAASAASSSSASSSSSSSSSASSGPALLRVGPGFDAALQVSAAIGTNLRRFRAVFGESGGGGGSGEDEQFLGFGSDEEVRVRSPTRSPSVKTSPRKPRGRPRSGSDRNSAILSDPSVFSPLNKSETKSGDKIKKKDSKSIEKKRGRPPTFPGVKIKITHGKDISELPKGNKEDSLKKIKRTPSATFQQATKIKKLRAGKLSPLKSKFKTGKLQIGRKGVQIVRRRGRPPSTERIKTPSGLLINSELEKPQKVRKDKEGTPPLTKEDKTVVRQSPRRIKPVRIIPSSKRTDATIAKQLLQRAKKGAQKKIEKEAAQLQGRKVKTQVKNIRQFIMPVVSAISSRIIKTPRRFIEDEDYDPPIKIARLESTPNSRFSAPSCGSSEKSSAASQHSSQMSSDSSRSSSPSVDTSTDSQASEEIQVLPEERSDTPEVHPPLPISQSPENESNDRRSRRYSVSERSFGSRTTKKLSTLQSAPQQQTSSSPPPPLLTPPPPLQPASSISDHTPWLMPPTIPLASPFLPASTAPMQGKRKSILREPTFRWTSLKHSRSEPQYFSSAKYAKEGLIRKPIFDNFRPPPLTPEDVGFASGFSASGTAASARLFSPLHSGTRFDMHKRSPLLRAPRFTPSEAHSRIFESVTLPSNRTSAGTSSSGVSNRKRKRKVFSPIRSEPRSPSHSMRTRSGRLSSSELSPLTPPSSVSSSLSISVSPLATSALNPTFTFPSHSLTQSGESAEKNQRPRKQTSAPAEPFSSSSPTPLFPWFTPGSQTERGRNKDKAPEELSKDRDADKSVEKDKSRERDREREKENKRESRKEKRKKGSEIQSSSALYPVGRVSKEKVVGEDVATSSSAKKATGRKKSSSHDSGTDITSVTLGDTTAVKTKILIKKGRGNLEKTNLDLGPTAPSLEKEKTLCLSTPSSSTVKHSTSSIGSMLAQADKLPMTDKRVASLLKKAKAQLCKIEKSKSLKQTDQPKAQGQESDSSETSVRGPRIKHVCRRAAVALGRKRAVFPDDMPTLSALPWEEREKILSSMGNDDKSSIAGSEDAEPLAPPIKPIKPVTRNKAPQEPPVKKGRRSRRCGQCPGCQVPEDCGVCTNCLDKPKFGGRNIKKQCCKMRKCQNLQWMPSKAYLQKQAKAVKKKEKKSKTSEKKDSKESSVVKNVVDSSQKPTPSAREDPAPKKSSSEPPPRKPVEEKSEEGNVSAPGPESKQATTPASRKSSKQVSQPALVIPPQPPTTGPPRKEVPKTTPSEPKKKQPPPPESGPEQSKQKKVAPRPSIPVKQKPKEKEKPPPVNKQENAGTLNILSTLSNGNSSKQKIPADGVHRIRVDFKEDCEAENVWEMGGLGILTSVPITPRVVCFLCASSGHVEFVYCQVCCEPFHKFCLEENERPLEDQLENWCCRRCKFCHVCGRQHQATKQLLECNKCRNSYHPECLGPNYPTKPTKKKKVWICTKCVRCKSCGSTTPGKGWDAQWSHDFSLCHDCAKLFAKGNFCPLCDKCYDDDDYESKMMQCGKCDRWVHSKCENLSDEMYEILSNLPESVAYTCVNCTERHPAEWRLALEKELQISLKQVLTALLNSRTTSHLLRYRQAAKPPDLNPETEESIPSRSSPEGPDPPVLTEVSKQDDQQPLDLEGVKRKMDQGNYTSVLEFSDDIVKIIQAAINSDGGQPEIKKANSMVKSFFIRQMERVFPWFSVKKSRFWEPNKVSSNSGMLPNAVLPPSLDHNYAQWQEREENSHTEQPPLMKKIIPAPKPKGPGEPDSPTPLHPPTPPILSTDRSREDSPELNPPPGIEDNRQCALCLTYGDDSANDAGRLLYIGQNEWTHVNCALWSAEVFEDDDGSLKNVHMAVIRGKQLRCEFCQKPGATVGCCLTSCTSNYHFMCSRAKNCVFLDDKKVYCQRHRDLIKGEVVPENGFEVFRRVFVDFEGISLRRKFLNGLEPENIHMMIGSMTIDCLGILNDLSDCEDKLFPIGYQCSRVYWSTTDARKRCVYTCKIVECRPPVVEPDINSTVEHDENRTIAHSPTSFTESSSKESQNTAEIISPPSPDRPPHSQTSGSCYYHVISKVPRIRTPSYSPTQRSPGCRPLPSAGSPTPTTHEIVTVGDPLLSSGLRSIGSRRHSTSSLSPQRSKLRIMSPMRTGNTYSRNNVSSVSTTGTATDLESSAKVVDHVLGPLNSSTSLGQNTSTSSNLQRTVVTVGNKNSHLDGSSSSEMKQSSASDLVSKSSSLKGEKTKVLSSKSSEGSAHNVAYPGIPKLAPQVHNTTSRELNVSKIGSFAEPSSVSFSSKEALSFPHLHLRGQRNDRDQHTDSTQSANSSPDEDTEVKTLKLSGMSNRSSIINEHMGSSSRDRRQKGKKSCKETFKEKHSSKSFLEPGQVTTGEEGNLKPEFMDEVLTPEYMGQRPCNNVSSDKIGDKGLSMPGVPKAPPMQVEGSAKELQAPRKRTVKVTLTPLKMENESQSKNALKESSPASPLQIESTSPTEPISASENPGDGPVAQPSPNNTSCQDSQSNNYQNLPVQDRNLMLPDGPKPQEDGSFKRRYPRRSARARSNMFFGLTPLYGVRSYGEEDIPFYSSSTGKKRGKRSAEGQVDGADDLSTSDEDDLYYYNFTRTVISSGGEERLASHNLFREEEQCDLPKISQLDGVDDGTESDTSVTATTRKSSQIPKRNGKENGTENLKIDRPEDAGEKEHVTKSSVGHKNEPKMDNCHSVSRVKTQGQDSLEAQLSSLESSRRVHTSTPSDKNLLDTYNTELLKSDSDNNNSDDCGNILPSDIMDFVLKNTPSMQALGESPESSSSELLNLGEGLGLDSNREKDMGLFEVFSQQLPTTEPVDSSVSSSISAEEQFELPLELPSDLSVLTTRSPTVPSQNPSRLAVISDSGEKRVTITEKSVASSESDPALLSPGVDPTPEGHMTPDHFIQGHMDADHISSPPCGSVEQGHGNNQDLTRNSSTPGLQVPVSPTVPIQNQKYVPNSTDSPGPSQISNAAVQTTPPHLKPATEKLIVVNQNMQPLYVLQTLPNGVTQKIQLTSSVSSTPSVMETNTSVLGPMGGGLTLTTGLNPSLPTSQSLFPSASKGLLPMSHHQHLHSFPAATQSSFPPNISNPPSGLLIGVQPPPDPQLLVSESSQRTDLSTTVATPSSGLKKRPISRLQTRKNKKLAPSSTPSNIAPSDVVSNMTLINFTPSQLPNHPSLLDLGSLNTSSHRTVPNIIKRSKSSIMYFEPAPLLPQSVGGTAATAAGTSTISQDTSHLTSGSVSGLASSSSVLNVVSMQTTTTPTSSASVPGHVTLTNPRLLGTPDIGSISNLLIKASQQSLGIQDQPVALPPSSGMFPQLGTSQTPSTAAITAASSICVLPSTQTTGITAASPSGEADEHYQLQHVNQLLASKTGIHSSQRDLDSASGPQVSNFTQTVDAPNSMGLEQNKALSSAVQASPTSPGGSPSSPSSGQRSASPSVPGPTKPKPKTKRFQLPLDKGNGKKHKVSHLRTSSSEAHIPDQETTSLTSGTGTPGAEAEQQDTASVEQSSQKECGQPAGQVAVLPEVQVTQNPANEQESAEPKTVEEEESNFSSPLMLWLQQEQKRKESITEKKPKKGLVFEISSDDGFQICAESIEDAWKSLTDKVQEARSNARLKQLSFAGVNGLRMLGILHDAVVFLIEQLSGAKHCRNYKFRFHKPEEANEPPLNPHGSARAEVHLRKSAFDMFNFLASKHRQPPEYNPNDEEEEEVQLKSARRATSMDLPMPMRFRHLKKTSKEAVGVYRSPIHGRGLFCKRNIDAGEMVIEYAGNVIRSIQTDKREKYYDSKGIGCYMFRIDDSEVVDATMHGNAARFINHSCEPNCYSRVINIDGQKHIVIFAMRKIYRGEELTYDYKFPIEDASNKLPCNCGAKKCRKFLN

Molecular target: Histone-lysine N-methyltransferase 2A (Homo sapiens) (UniProt Q03164)
Assay: qHTS Fluorescence Polarization Assay for Inhibitors of MLL CXXC domain - DNA interaction
Conditions: MLL-CXXC / FITC-HOXA9 DNA fluorescence polarization; series mostly up to 115 µM
In short: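 Fluorescence polarization: 7 uM MLL-CXXC (stock) preincubated 5 min with compounds, then 50 nM fluorescein-HOX-A9 DNA (stock) added; 30 min ambient. Buffer 50 mM Tris-HCl pH 7.5, 50 mM NaCl, 1 mM DTT, 0.05% BSA.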
Potency is read from the fitted curve at half-maximal effect.

SMILES	Potency
O=S(=O)(Nc1ncccn1)c1ccc(NC(=S)NCCc2ccccc2)cc1	inconclusive: 12.6 µM [fluorescent, side channel, partial curve]
O=C(O)CCN1C(=O)/C(=C\c2cccc(OCC(=O)Nc3ccc(Cl)cc3)c2)SC1=S	inconclusive: 12.6 µM [inhibitor, partial curve]
CCCCC(=O)Nc1ccc2c3c(cccc13)C(=O)N2CC	inconclusive: 7.94 µM [inhibitor, partial curve]
COc1ccc(/C=C(\NC(=O)c2ccco2)C(=O)NCCc2nc3ccccc3[nH]2)cc1	inconclusive: 7.94 µM [inhibitor, single point]
CCN(CC)c1ccc(/C=C2\CCC(/C=N/NC(=O)c3ccc(=O)n(C)c3)=C2N2CCOCC2)cc1	inconclusive: 8.91 µM [fluorescent, side channel, partial curve]
NC(=NCCCCCCN=C(N)/N=C(\N)Nc1ccc(Cl)cc1)/N=C(\N)Nc1ccc(Cl)cc1	inconclusive: 5.01 µM [quencher, side channel, full curve, poor fit]
COc1ccc(/C=C2\CN(Cc3ccccc3)C/C(=C\c3ccc(OC)cc3)C2=O)cc1	inconclusive: 14.1 µM [inhibitor, single point]
O=C(Nc1ccc(C2=NCCN2)cc1)c1ccc(Cl)c(C(=O)Nc2ccc(C3=NCCN3)cc2)c1	inconclusive: 35.5 µM [quencher, side channel, partial curve]
O=C(CSc1ccc(-c2cccnc2)nn1)N1CCCCC1	inconclusive: 10 µM [fluorescent, side channel, single point]
O=C1COc2ccc(NC(=O)c3ccccc3C(=O)O)cc2N1	inconclusive: 70.8 µM [fluorescent, side channel, single point]
COc1cc(/C=N\Nc2ccc([N+](=O)[O-])cc2)ccc1OCC(=O)Nc1ccc(C)c(C)c1	inactive
Cc1nc2c(c(=O)n1CCC1=CCCCC1)c1nc3ccccc3nc1n2/N=C/c1ccccc1	inactive
CC(c1ccccc1)c1nnc(N)s1 (stereo not drawn)	inconclusive: 8.91 µM [inhibitor, single point]
CC(=O)N1CCc2c(sc(NC(=O)CCS(=O)(=O)c3ccccc3)c2C(N)=O)C1	inconclusive: 28.2 µM [fluorescent, side channel, partial curve]
COc1ccc(NC(=S)N2CCN(S(=O)(=O)c3ccc(C)cc3)CC2)cc1	inconclusive: 8.91 µM [quencher, side channel, full curve]
c1ccc(CN2CCC(Nc3nc(-c4ccccc4)nc4ccccc34)CC2)cc1	inconclusive: 17.8 µM [quencher, side channel, partial curve]
COc1ccccc1CCCNC(=O)C1CCC(=O)N(CCc2cccc(F)c2)C1 (stereo not drawn)	inconclusive: 50.1 µM [quencher, side channel, single point]
CCNC(=S)NNC(=O)CSc1nc2ccccc2n1C	inconclusive: 1.41 µM [inhibitor, full curve]
Cc1cc(NC(=O)c2cccs2)no1	inconclusive: 1.12 µM [inhibitor, partial curve, poor fit]
CC(=O)Nc1ccc(-c2cc(C(=O)O)c3ccccc3n2)cc1	inconclusive: 1.41 µM [inhibitor, full curve, poor fit]

No new results follow: 3 of the compounds above.
SMILES	Potency
Cc1nc2c(c(=O)n1CCC1=CCCCC1)c1nc3ccccc3nc1n2/N=C/c1ccccc1	inactive
CC(c1ccccc1)c1nnc(N)s1 (stereo not drawn)	inconclusive: 8.91 µM [inhibitor, single point]
CC(=O)N1CCc2c(sc(NC(=O)CCS(=O)(=O)c3ccccc3)c2C(N)=O)C1	inconclusive: 28.2 µM [fluorescent, side channel, partial curve]

Further entries.

SMILES	Potency
COc1ccc(CNC(=O)Cc2c[nH]c3ccccc23)cc1OC	inconclusive: 63.1 µM [fluorescent, side channel, single point]
CN(C)/C=C1\C=C2C(=O)c3ccccc3N2C1=O	inconclusive: 0.891 µM [fluorescent, side channel, full curve, poor fit]
N#CC1=C(SCC(=O)c2cc3ccccc3oc2=O)NC(=O)C(C#N)C12CCCC2 (stereo not drawn)	inconclusive: 12.6 µM [fluorescent, side channel, partial curve]
O=C(COC(=O)CNC(=O)c1ccccc1)Nc1ccc2c(c1)OCO2	inconclusive: 44.7 µM [fluorescent, side channel, single point]
CC(NC(=O)c1ccc(Br)cc1)c1ccc2c(c1)CCCC2 (stereo not drawn)	inconclusive: 56.2 µM [inhibitor, single point]
CC(C)C(=O)Nc1ccc(C(=O)NNC(=O)c2cccs2)cc1	inconclusive: 1.41 µM [fluorescent, side channel, full curve, poor fit]
CCN1CCN(C(=S)Nc2ccsc2C(=O)OC)CC1	inconclusive: 11.2 µM [fluorescent, side channel, single point]
CCOc1ccc(CCNC(=O)C2CCCN(S(C)(=O)=O)C2)cc1OCC (stereo not drawn)	inconclusive: 10 µM [inhibitor, single point]
CN1CCc2c(sc(NC(=O)c3cc4cc([N+](=O)[O-])ccc4s3)c2C(N)=O)C1	inconclusive: 20 µM [quencher, side channel, partial curve]
Cc1cc2nc(CSc3ccccc3)cc(=O)n2[nH]1	inconclusive: 15.8 µM [fluorescent, side channel, partial curve]
COC(=O)c1ccc(/C=N/OCC(=O)Nc2cc(F)ccc2F)cc1	inconclusive: 7.08 µM [fluorescent, side channel, full curve, poor fit]
CCOC(=O)Oc1ccc(/C=C2\N=C(C)OC2=O)cc1	inconclusive: 35.5 µM [fluorescent, side channel, partial curve]
COc1ccc(/C=C(/C#N)C(=O)Nc2cc(C)ccc2C)cc1C(=O)O	inactive
Cc1cccc(NC(=O)N2CCC(NC(=O)c3ccco3)CC2)c1	inconclusive: 28.2 µM [fluorescent, side channel, partial curve, poor fit]
CCN(CC)c1ccc(/C=C(\C#N)c2nc(-c3cccs3)c(NC(C)=O)s2)cc1	inconclusive: 1.58 µM [fluorescent, side channel, full curve]
CCCCC(=O)Nc1ccc(C(=O)Nc2ccc(OC)cc2[N+](=O)[O-])cc1	inconclusive: 31.6 µM [fluorescent, side channel, partial curve]
O=c1c2cccc3c(N4CCOCC4)ccc(c32)c2nc3ccccc3n12	inconclusive: 44.7 µM [fluorescent, side channel, partial curve]
O=C1c2ccccc2NC(c2ccncc2)N1c1ccccn1 (stereo not drawn)	inactive
O=C(CCC1CCN(C(=O)Cc2c(F)cccc2F)CC1)NC1CC1	inconclusive: 7.94 µM [fluorescent, side channel, full curve]
CCOC(=O)/C(=C\C=C1/Sc2ccccc2N1CC)C(C)=O	inconclusive: 12.6 µM [fluorescent, side channel, partial curve]

SMILES	Potency
CCN(CC)Cc1cc(O)c(CN(CC)CC)cc1O	inconclusive: 44.7 µM [fluorescent, side channel, single point]
O=[N+]([O-])c1cc(/C=N/Nc2nc3ccccc3[nH]2)c(O)cc1O	inactive
CCOC(=O)/C=c1\s/c(=C\c2ccc(C)cc2)c(=O)n1CC(=O)NCc1ccco1	inactive
O=C(Nc1ccc(OC(F)F)c(Cl)c1)c1ccccn1	inactive
Nc1c(Cl)ncnc1N/N=C/c1ccccn1	inactive
O=C(NN=C1CCC(=NNC(=O)c2ccccn2)CC1)c1ccccn1	inconclusive: 10 µM [inhibitor, full curve]
CN(C)c1ccc(/C=C2\SC(=O)N(CCc3nnc(N)s3)C2=O)cc1	inconclusive: 25.1 µM [fluorescent, side channel, partial curve]
COC(=O)c1cc2c(-c3ccccc3)c(C)c3ccccn3c-2c1C(=O)OC	inactive
CC[C@H]1OC(=O)[C@H](C)C(=O)[C@H](C)[C@@H](OC2O[C@H](C)C[C@H](N(C)C)[C@@H]2O)[C@@](C)(OC)C[C@@H](C)C(=O)[C@@H](C)C2N(CCCCn3cnc(-c4cccnc4)c3)C(=O)O[C@@]21C (stereo partly drawn)	inactive
Cc1nc2scc(-c3ccccc3)c2c(=O)n1/N=C/c1ccco1	inconclusive: 79.4 µM [inhibitor, single point]
O=[N+]([O-])c1ccc(N=Nc2ncc[nH]2)cc1	inconclusive: 28.2 µM [quencher, side channel, single point]
CCN(CC)S(=O)(=O)c1cc([N+](=O)[O-])ccc1N=Nc1c(O)[nH]c2ccccc12	inactive
O=[N+]([O-])c1ccc(C=Nc2ccc(Cl)c([N+](=O)[O-])c2)s1	inconclusive: 5.62 µM [inhibitor, single point]
COc1cc(/C=C/c2cc[n+](C)cc2)ccc1OCC(=O)Nc1ccc(Cl)c(Cl)c1	inconclusive: 63.1 µM [fluorescent, single point]
CC1=[N+](C)c2ccc3ccccc3c2C1(C)C	inactive
N#C/C(=C/c1ccc(N2CCCCCC2)o1)c1ccc(Cl)cc1	inconclusive: 15.8 µM [fluorescent, side channel, partial curve]
O=c1oc2c(CN3CCCCCC3)c(O)ccc2cc1-c1nc2ccccc2[nH]1	inconclusive: 5.01 µM [fluorescent, side channel, full curve]
